Measurements published in PMC6317261, “Functional dissection of the developmentally restricted BEN domain chromatin boundary factor Insensitive” (Epigenetics & Chromatin, 2019).
For some assays here: No signal at the amounts used counts as a negative. For some assays here: Tags and fusion partners may be left off the protein sequences shown. For some assays here: Construct, isoform or probe ends are uncertain for at least one entry.

How the values were obtained:
[1] = molecular target: T1, GST:C domain (UniProt Q8SYK5); test: EMSA; details: EMSA: 25 mM Tris-HCl pH 7.4, 100 mM KCl, 1 mM EDTA, 0.1 mM DTT, 0.1 mM PMSF, 0.03 mg/mL BSA, 10% glycerol, 0.5% Triton X-100, 0.25 mg/mL poly(dI-dC); recombinant protein; residues 209-253; protein details: N-terminal GST; label: 5'-32P
T1 sequence (looked up): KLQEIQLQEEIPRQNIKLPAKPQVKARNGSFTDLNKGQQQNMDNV

[2] = molecular target: GST:Ce-BEN (UniProt Q8SYK5); test: EMSA; details: EMSA: 25 mM Tris-HCl pH 7.4, 100 mM KCl, 1 mM EDTA, 0.1 mM DTT, 0.1 mM PMSF, 0.03 mg/mL BSA, 10% glycerol, 0.5% Triton X-100, 0.25 mg/mL poly(dI-dC); recombinant protein; protein details: N-terminal GST; label: 5'-32P

## CCACCGCAAAATCCAATTGGAAGAGAGCGACT (double strand) [P3]
[1]
  binding result: no binding
[2]
  binding result: binds
